Results reported in patent US10287234B2, “Triglyceride and use thereof” (NITTO PHARMACEUTICAL INDUSTRIES, LTD., priority 2015, dated 2019).

Experiment: Sensory evaluation of flavor (taste test) by 10 panelists
Settings: 5 mg sample ingested; for Results of taste test: total evaluation: delicious (5 points)-brackish (1 point); for Results of taste test, five tastes: bitter taste / Results of taste test, five tastes: saltiness / Results of taste test, five tastes: sour taste / Results of taste test, five tastes: sweetness / Results of taste test, five tastes: umami taste: strong (5 points)-weak (1 point); for Results of taste test: acridity / Results of taste test: oil odor: weak (5 points)-strong (1 point)
Protocol: A sensory evaluation of the flavor of compounds (I) of the present invention of Examples 1-3, trilinolein of Comparative Example 1 and HYA of Comparative Example 2 was performed by 10 panelists (hereinafter to be referred to as taste test). The panelists ingested 5 mg of a sample (sample name was kept secret to the panelists during the test), evaluated five tastes (umami taste, bitter taste, sour taste, saltiness, sweetness) respectively for the strength, acridity and oil odor, and made total evaluation.
Each evaluation was marked in the following 5 grades.
Five tastes (umami taste, bitter taste, sour taste, saltiness, sweetness):
Strong (5 points)-weak (1 point)
Acridity: weak (5 points)-strong (1 point)
Oil odor: weak (5 points)-strong (1 point)
Total evaluation: delicious (5 points)-brackish (1 point)
It was also shown that acridity was reduced by converting HYA to triglyceride.

Compound	Results of taste test: total evaluation	Results of taste test, five tastes: bitter taste	Results of taste test, five tastes: saltiness	Results of taste test, five tastes: sour taste	Results of taste test, five tastes: sweetness	Results of taste test, five tastes: umami taste	Results of taste test: acridity	Results of taste test: oil odor
CCCCC/C=C\C/C=C\CCCCCCCC(=O)OCC(COC(=O)CCCCCCCCC(O)C/C=C\CCCCC)OC(=O)CCCCCCC/C=C\C/C=C\CCCCC (stereo not drawn) [Ex. 1, Di(cis, cis-9,12-octadecadienoyl)(10-hydroxy-cis-12-octadecenoyl)glycerol]	4 points	1 points	1.5 points	1 points	3.5 points	3.5 points	5 points	4 points
CCCCC/C=C\C/C=C\CCCCCCCC(=O)OC(COC(=O)CCCCCCCCC(O)C/C=C\CCCCC)COC(=O)CCCCCCCCC(O)C/C=C\CCCCC (stereo not drawn) [Ex. 2, Di(10-hydroxy-cis-12-octadecenoyl)(cis, cis-9,12-octadecadienoyl)glycerol]	4 points	1 points	1 points	1 points	4 points	4 points	5 points	4.5 points
CCCCC/C=C\C/C=C\CCCCCCCC(=O)OCC(COC(=O)CCCCCCC/C=C\C/C=C\CCCCC)OC(=O)CCCCCCC/C=C\C/C=C\CCCCC [compound 1, Trilinolein, reference compound]	3 points	1 points	1 points	1 points	2 points	2.5 points	4 points	2 points
CCCCC/C=C\CC(O)CCCCCCCCC(=O)O (stereo not drawn) [compound 2, 10-Hydroxy-cis-12-octadecenoic Acid, reference compound]	1 points	3.5 points	1 points	1 points	1 points	1.5 points	1 points	3.5 points
Tri(10-hydroxy-cis-12-octadecenoyl)glycerol [Ex. 3]	5 points	1 points	1 points	1 points	4 points	4 points	5 points	4.5 points
